From patent publication US20150368309A1 (SHIRE HUMAN GENETIC THERAPIES, published 2015)
No constants are given. Whether binding was seen depends on the method and setting. Some results given as binding are weak or reduced against the parent protein; the word gives no strength.

Sequences of proteins named here, by UniProt entry; tags and fusion partners are left off. A change or cut given only in a name is not applied to a line headed by its entry. A line that says so, or that is headed by a name, gives the form on record, which may keep a tag or linker.
human sFlt-1-Fc (P17948-2, form named): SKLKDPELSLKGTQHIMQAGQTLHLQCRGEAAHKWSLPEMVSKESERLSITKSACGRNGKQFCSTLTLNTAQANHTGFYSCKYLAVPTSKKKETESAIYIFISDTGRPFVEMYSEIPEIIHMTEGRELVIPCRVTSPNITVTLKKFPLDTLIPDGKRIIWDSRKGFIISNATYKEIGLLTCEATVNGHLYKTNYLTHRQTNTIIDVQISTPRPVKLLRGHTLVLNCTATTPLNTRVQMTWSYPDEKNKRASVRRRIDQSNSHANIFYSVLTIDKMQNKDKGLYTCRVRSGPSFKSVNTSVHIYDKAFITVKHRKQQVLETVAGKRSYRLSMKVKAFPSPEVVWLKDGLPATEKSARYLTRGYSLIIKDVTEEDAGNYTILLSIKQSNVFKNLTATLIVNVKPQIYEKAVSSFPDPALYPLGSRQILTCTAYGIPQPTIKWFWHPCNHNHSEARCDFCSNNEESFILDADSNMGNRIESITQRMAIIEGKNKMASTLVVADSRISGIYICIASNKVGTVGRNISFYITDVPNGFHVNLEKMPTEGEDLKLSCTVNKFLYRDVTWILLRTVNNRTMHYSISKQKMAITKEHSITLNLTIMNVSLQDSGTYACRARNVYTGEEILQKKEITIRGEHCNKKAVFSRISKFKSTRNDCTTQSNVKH

What was measured:
[1] = target: Human sFlt-1 (Abcam, Cat#54346), without Fc fusion (human) (UniProt P17948); experiment: DSS crosslinking, anti-PLGF and anti-Flt-1 Western blots
human sFlt-1-Fc [2] = target: T1, human sFlt-1-Fc (human, UniProt P17948-2 27-687, limits assumed); experiment: SPR, capture approach
T1 construct: A bought fusion protein; also called hsFlt-1-Fc; hsFlt-1-Fc dimer; not shown: Fc part (captured and detected with anti-human IgG Fc)

[3] = target: Flt-1 receptor (plate based assay) (Homo sapiens (Human)) (UniProt P17948); experiment: plate based assay, Flt-1 captured by anti-Flt-1 antibody, detection with biotinylated anti-PLGF
mouse sFlt-1 = target: T2, mouse sFlt-1 (mouse, UniProt P35969 23-759, limits assumed); experiment: SPR, capture approach
T2 construct: also called msFlt-1
T2 sequence (looked up): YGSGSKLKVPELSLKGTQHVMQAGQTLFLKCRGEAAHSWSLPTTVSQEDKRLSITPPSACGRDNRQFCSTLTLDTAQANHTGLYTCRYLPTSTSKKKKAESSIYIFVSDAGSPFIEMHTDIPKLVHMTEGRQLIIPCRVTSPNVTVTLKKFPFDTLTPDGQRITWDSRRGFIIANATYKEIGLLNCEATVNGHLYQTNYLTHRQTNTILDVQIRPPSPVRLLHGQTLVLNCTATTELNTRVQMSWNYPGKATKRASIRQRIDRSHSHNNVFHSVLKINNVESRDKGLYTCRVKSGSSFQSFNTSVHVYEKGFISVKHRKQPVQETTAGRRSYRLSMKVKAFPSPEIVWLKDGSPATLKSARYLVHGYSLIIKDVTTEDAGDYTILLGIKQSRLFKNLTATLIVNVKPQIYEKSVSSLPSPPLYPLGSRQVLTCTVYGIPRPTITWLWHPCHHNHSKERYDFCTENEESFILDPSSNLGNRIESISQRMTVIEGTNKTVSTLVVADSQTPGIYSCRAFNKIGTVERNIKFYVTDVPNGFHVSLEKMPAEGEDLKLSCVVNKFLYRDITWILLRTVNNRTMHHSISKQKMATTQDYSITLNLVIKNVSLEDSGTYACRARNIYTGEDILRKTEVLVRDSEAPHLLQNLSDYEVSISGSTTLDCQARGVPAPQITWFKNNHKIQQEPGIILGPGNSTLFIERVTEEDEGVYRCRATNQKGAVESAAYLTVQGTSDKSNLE
Experimental: In the capture approach, goat anti-hIgG Fc polyclonal antibody (30 μg/mL in 10 mM acetate buffer, pH 5.0) was immobilized onto a CM5 chip by amine coupling. The immobilization level or surface density of anti-hIgG Fc antibody was controlled between 6000 to 8000 RU. For the kinetic study, sFlt-1-Fc was captured on the surface that was immobilized with the anti-hIgG Fc antibody, before each injection of PLGF variants. The capture level of sFlt-1-Fc (10 μg/mL) was controlled by varying contact time, 10 to 30 seconds, at flow rate 10 μL/min. PLGF variants, as analytes, were serially diluted in HBS-EP+ buffer from 50 to 0.03 nM, and injected to the surface that captured sFlt-1-Fc. The association time for each PLGF variants injection was 300 seconds at 30 μL/min and dissociation time was 600 seconds at the same flow rate. After each round of PLGF variants' injection, a regeneration of […] H3PO4 pH1.8 at 60 μl/min for 90 seconds was performed. The regeneration step effectively removes the complex of sFlt-1-Fc and PLGF variants from the surface that was immobilized with anti-hIgG Fc antibody. A stabilization step was applied for 90 seconds after regeneration.
The binding characteristics of PLGF variants, PLGF C59A, human WT PLGF and mouse WT PLGF, with msFlt-1 were studied in the mouse model. The same capture approach for hsFlt-1 was used for the msFlt-1.

[4] = target: Human sFlt-1 (Abcam, Cat#54346), without Fc fusion (human) (UniProt P17948); experiment: DSS crosslinking, reduced SDS-PAGE, Western blots with anti-Flt1 and anti-PlGF
[5] = target: Flt-1 receptor (plate based assay) (Homo sapiens (Human)) (UniProt P17948); experiment: plate based assay: Flt-1 captured by coated mouse monoclonal anti-Flt-1 antibody, bound PLGF detected with biotinylated goat anti-PLGF antibody and streptavidin-HRP, OD450
[6] = target: Human sFlt-1 (Abcam, Cat#54346), without Fc fusion (human) (UniProt P17948); experiment: DSS crosslinking, Western blot
PLGF C59A (human) [7] = target: PLGF C59A (human) (UniProt P49763); experiment: DSS crosslinking, anti-PLGF Western blot (self-association)
PLGF C59A (human) [8] = target: PLGF C59A (human) (UniProt P49763); experiment: DSS crosslinking, Western blot (self-association)
human sFlt-1-Fc [9] = target: T1, human sFlt-1-Fc; experiment: SPR, hsFlt-1-Fc captured by anti-hIgG Fc

Measured: binding

B1: wild-type human PLGF protein (ligand)
chain: LPAVPPQQWALSAGNGSSEVEVVPFQEVWGRSYCRALERLVDVVSEYPSEVEHMFSPSCVSLLRCTGCCGDENLHCVPVETANVTMQLLKIRSGDRPSYVELTFSQHVRCECRPLREKMKPERCGDAVPRR
notes: also called WT PLGF; Human WT-PLGF
not listed: PLGF C59A (human) [7] | PLGF C59A (human) [8] | human sFlt-1-Fc [9]
binds: all other assays above

B2: mouse WT PLGF (ligand, UniProt P49764 19-158, looked up)
chain: VHSQGALSAGNNSTEVEVVPFNEVWGRSYCRPMEKLVYILDEYPDEVSHIFSPSCVLLSRCSGCCGDEGLHCVPIKTANITMQILKIPPNRDPHFYVEMTFSQDVLCECRPILETTKAERRKTKGKRKRSRNSQTEEPHP
binds: mouse sFlt-1

B3: PLGF C59A (ligand)
chain: LPAVPPQQWALSAGNGSSEVEVVPFQEVWGRSYCRALERLVDVVSEYPSEVEHMFSPSAVSLLRCTGCCGDENLHCVPVETANVTMQLLKIRSGDRPSYVELTFSQHVRCECRPLREKMKPERCGDAVPRRHHHHHH
notes: Expressed in human fibrosarcoma cells, purified on a Nickel column, glycosylated; RC4 96.7% monomer; R3 97.1% monomer, formulated in 1 mM DTT; also called C59A PLGF; not shown: Tev protease cleavage site added at the C-terminus
not listed: human sFlt-1-Fc [2] | mouse sFlt-1
binds: all other assays above
